Assay results taken from patent publication US20040115176A1, “Fibrin-based tissue-engineered vasculature” (priority 2002, published 2004).

Tested on: fibrin gel constructs
Assay: Stretch length at breaking tension
Parameters: species or system ovine

aprotinin was tested, and the breaking length (altered pulsation (1 hour per 12 hours), 20 μg/ml aprotinin, 2 wks) was 14.88±0.69 mm, the breaking length (non-pulsed, 10 μg/ml aprotinin, 14 days) was 14.23±1.66 mm and the breaking length (non-pulsed, 20 μg/ml aprotinin, 1 wk) was 14.95±3.65 mm. It also gave a breaking length (non-pulsed, 20 μg/ml aprotinin, 3 wk) of 12.70±1.30 mm, a breaking length (non-pulsed, 20 μg/ml aprotinin, 4 wk) of 10.87±0.96 mm and a breaking length (non-pulsed, 20 μg/ml aprotinin, 8 wk) of 11.70±0.81 mm. It also gave a breaking length (non-pulsed, 20 μg/ml aprotinin, 14 days (2 wk)) of 14.00±2.05 mm, a breaking length (non-pulsed, 200 μg/ml aprotinin, 14 days) of 13.05±2.26 mm and a breaking length (pulsed, 10 μg/ml aprotinin, 14 days) of 11.44±1.19 mm. The breaking length (pulsed, 20 μg/ml aprotinin, 1 wk) was 16.25±4.35 mm, the breaking length (pulsed, 20 μg/ml aprotinin, 3 wk) was 15.85±1.75 mm and the breaking length (pulsed, 20 μg/ml aprotinin, 4 wk) was 12.77±1.57 mm. It also gave a breaking length (pulsed, 20 μg/ml aprotinin, 8 wk) of 12.90±1.15 mm, a breaking length (pulsed, 20 μg/ml aprotinin, 14 days (2 wk)) of 13.45±2.76 mm and a breaking length (pulsed, 200 μg/ml aprotinin, 14 days) of 17.98±0.51 mm.
